No constants are given. Whether binding was seen depends on the method and setting. Some results given as binding are weak or reduced against the parent protein; the word gives no strength.

Two molecules from patent US20050239140A1 (Janssen / Centocor, published 2005) can be followed below.

Assay [1] has as its target T1, soluble murine Tissue Factor (extracellular domain) (murine) (UniProt P20352).
T1 sequence (looked up): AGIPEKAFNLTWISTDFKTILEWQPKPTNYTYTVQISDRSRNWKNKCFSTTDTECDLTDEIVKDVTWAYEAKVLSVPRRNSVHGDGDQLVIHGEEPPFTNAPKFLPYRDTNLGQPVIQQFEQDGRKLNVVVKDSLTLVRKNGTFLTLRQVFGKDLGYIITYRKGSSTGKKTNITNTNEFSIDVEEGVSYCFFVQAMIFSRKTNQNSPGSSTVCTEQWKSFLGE
The assay can be described thus: ELISA, purified Fab. On the technique in general: ELISA stands for enzyme-linked immunosorbent assay.

Assay [2] concerns the target T1, soluble murine Tissue Factor (extracellular domain) (murine). The assay can be described thus: screening of Fab clones from the competition panning.

B1: PHD127 Fab (Fab, V domains shown)
VH: QVQLVQSGAEVKKPGESLKISCKGSYSFTNSWISWVRQMPGKGLEWMGIIDPDDSYTSYSPSFQGQVTISADKSISTAYLQWSSLKASDTAMYYCARGAGYGRMFGDVWGQGTLVTVSS
VL: DIELTQPPSVSVAPGQTARISCSGDNLGSYYASWYQQKPGQAPVLVIYQDDNRPSGIPERFSGSNSGNTATLTISGTQAEDEADYYCGAYTYSTSWVFGGGTKLTVLG
notes: HuCAL Fab; The assignment of 8 (VH) and 9 (VL) to PHD127 follows the order of listing
As to B1, the binding result in assay [1] and in assay [2] was “binds” in each case.

B2: PHD103 Fab (Fab, V domains shown)
VH: QVQLVQSGAEVKKPGESLKISCKGSGYSFSNSWIAWVRQMPGKGLEWMGGIIGPGHSYTKYSPSFQGQVTISADKSISTAYLQWSSLKASDTAMYYCARINMGYFDYWGQGTLVTVSS
VL: DIELTQPPSVSVAPGQTARISCSGDSLGLKKFVSWYQQKPGQAPVLVIYDDSNRPSGIPERFSGSNSGNTATLTISGTQAEDEADYYCGTYDQTIGHDVVFGGGTKLTVLG
B2: the binding entry in assay [1] and in assay [2] was “binds” throughout.
